This experiment addresses human PRL3 fused to HA (human) (UniProt O75365). Put plainly: co-IP; A375 cells stably expressing PRL3-HA or empty vector, lysed in RIPA buffer; anti-HA-tag magnetic beads; blot with anti-DDX21.

By UniProt entry, the sequences of proteins in these tests, tags left out.
UniProt O75365: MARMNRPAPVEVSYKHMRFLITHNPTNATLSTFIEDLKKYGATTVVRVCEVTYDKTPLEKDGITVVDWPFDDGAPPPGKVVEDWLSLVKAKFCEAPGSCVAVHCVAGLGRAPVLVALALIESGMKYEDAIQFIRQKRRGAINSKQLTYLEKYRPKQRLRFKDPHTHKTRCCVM

Results are given in words; binding and its absence hold for the method and conditions named. In cells and extracts the contact can be indirect. Some results given as binding are weak or reduced against the parent protein; the word gives no strength.

B1: DDX21 (human, endogenous in A375 melanoma cells) (protein, UniProt Q9NR30 1-783)
chain: MPGKLRSDAGLESDTAMKKGETLRKQTEEKEKKEKPKSDKTEEIAEEEETVFPKAKQVKKKAEPSEVDMNSPKSKKAKKKEEPSQNDISPKTKSLRKKKEPIEKKVVSSKTKKVTKNEEPSEEEIDAPKPKKMKKEKEMNGETREKSPKLKNGFPHPEPDCNPSEAASEESNSEIEQEIPVEQKEGAFSNFPISEETIKLLKGRGVTFLFPIQAKTFHHVYSGKDLIAQARTGTGKTFSFAIPLIEKLHGELQDRKRGRAPQVLVLAPTRELANQVSKDFSDITKKLSVACFYGGTPYGGQFERMRNGIDILVGTPGRIKDHIQNGKLDLTKLKHVVLDEVDQMLDMGFADQVEEILSVAYKKDSEDNPQTLLFSATCPHWVFNVAKKYMKSTYEQVDLIGKKTQKTAITVEHLAIKCHWTQRAAVIGDVIRVYSGHQGRTIIFCETKKEAQELSQNSAIKQDAQSLHGDIPQKQREITLKGFRNGSFGVLVATNVAARGLDIPEVDLVIQSSPPKDVESYIHRSGRTGRAGRTGVCICFYQHKEEYQLVQVEQKAGIKFKRIGVPSATEIIKASSKDAIRLLDSVPPTAISHFKQSAEKLIEEKGAVEALAAALAHISGATSVDQRSLINSNVGFVTMILQCSIEMPNISYAWKELKEQLGEEIDSKVKGMVFLKGKLGVCFDVPTASVTEIQEKWHDSRRWQLSVATEQPELEGPREGYGGFRGQREGSRGFRGQRDGNRRFRGQREGSRGPRGQRSGGGNKSNRSQNKGQKRSFSKAFGQ
Regarding B1, the binding result is given as “binds”.

The values are drawn from publication PMC7435699.
